Measurements from PubChem BioAssay AID256 (DTP/NCI, 2004).
The list shows only some results of the screen, not a fair sample: it gathers tests that were run many times, whatever their T/C, doses with no T/C, and many T/C values between a quarter and a half above the control. Other doses and runs of a compound stand elsewhere. T/C is the treated group as % of the vehicle group. Some entries give survivors of the animals treated and no T/C: the source files T/C as zero there, which appears to mark a toxic dose or a test without result, not a measured value. Some doses without a T/C left all or most animals alive at the check, yet need not have been tolerated: survival well below the control is almost never listed, so the zero probably covers shortened survival too. Survivors were counted at the toxicity check, usually on the fifth day, unless a day is given; later deaths do not show. Schedule codes are those of the source, taken here to give the interval after Q, in days (D) or hours (H), and the number of doses after X. Some entries were tested several times; the values are given in rising order. For survival time, the PubChem record calls one and a half times the control and up active, and a quarter to a half above the control has no call in these data; cut-offs in other NCI protocols can differ. Counts like (3×) stand for listed records that agree. Some T/C values are followed by the survivors on the day toxicity was checked, most often the fifth; where none is given, no animal had died by that day.

System: CD2F1 mice, L1210 leukemia ip, survival T/C
Experiment: NCI In Vivo Anticancer Drug Screen. Data for tumor model L1210 Leukemia (intraperitoneal) in CD2F1 (CDF1) mice
Details: higher T/C = longer survival
How it was run: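 Vehicle-treated tumor-bearing mice served as controls (C) for compound-treated mice (T). Reported figure is T divided by C.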

[1] = T/C endpoint: mean survival time, dose: 100.0 mg/kg/injection, schedule: Q04DX003 (ip), vehicle: saline with Tween-80
[2] = T/C endpoint: mean survival time, dose: 200.0 mg/kg/injection, schedule: Q04DX003 (ip), vehicle: saline with Tween-80
[3] = T/C endpoint: mean survival time, dose: 400.0 mg/kg/injection, schedule: Q04DX003 (ip), vehicle: saline with Tween-80
[4] = T/C endpoint: mean survival time, dose: 200.0 mg/kg/injection, schedule: Q01DX009 (ip), vehicle: saline
[5] = T/C endpoint: mean survival time, dose: 100.0 mg/kg/injection, schedule: Q01DX001 (ip), vehicle: saline with Tween-80
[6] = T/C endpoint: mean survival time, dose: 400.0 mg/kg/injection, schedule: Q01DX009 (ip), vehicle: saline with Tween-80
[7] = T/C endpoint: mean survival time, dose: 400.0 mg/kg/injection, schedule: Q01DX001 (ip), vehicle: saline with Tween-80

`O=C1C=C(SCCO)C(=O)c2ccccc21` was tested, and the survivor count (T/C endpoint: mean survival time, dose: 5.0 mg/kg/injection, schedule: Q04DX003 (ip), vehicle: saline with Tween-80) was 3 of 6 and 6 of 6, the survivor count (T/C endpoint: mean survival time, dose: 10.0 mg/kg/injection, schedule: Q04DX003 (ip), vehicle: saline with Tween-80) was 2 of 6 and the survivor count (T/C endpoint: mean survival time, dose: 20.0 mg/kg/injection, schedule: Q04DX003 (ip), vehicle: saline with Tween-80) was 0 of 6. The survivor count [1] was 0 of 6, the survivor count [2] was 0 of 6 and the survivor count [3] was 0 of 6.

For `Cn1c(=O)c2[nH]c(Cl)nc2n(C)c1=O`, the survivor count (T/C endpoint: mean survival time, dose: 200.0 mg/kg/injection, schedule: Q01DX005 (ip), vehicle: water) was 1 of 6.

`COc1ccc(Nc2ncnc3c2ncn3C2OC(CO)C(O)C2O)cc1` (stereo unspecified) was tested, and the survivor count (T/C endpoint: mean survival time, dose: 50.0 mg/kg/injection, schedule: Q01DX005 (ip), vehicle: distilled water + Tween-80) was 1 of 6 and the survivor count (T/C endpoint: mean survival time, dose: 100.0 mg/kg/injection, schedule: Q01DX005 (ip), vehicle: distilled water + Tween-80) was 0 of 6.

For `CC(C)(C)c1cc(CN2CCCC(O)C2)c(O)c(-c2ccccc2)c1` (stereo unspecified), the survivor count [4] was 1 of 6.

In the case of `CC1CN(Cl)C(=O)N(Cl)C1=O` (stereo unspecified), the survivor count (T/C endpoint: mean survival time, dose: 75.0 mg/kg/injection, schedule: Q01DX001 (ip), vehicle: saline) is reported as 0 of 6, the survivor count (T/C endpoint: mean survival time, dose: 150.0 mg/kg/injection, schedule: Q01DX001 (ip), vehicle: saline) is reported as 0 of 6 and the survivor count (T/C endpoint: mean survival time, dose: 300.0 mg/kg/injection, schedule: Q01DX001 (ip), vehicle: saline) is reported as 0 of 6.

For `O=[As](O)(c1ccccc1)C1CCCCC1O` (stereo unspecified), the survivor count (T/C endpoint: mean survival time, dose: 50.0 mg/kg/injection, schedule: Q01DX001 (ip), vehicle: saline with Tween-80) was 3 of 6 and the survivor count [5] was 1 of 6.

With `Cc1cc(N(CCCl)CCCl)ccc1N=Nc1ccccc1C(=O)O` the T/C (T/C endpoint: mean survival time, dose: 10.0 mg/kg/injection, schedule: Q01DX007 (ip), vehicle: saline) was 136 % of control, the T/C (T/C endpoint: mean survival time, dose: 10.0 mg/kg/injection, schedule: Q01DX009 (ip), vehicle: saline) was 126 % of control and the T/C (T/C endpoint: mean survival time, dose: 10.0 mg/kg/injection, schedule: Q04DX003 (ip), vehicle: saline) was 128 % of control. For the same compound, the T/C (T/C endpoint: mean survival time, dose: 16.0 mg/kg/injection, schedule: Q01DX009 (ip), vehicle: saline with Tween-80) was 134 % of control, the T/C (T/C endpoint: mean survival time, dose: 20.0 mg/kg/injection, schedule: Q01DX007 (ip), vehicle: saline) was 144 % of control and the T/C (T/C endpoint: mean survival time, dose: 20.0 mg/kg/injection, schedule: Q01DX009 (ip), vehicle: saline) was 132 % of control (2×). The T/C (T/C endpoint: mean survival time, dose: 20.0 mg/kg/injection, schedule: Q03DX003 (ip), vehicle: saline) was 125 % of control, the T/C (T/C endpoint: mean survival time, dose: 20.0 mg/kg/injection, schedule: Q04DX003 (ip), vehicle: saline) was 126 % of control and the T/C (T/C endpoint: mean survival time, dose: 32.0 mg/kg/injection, schedule: Q04DX003 (ip), vehicle: saline with Tween-80) was 134 % of control [5 of 6 alive]. For the same compound, the survivor count (T/C endpoint: mean survival time, dose: 40.0 mg/kg/injection, schedule: Q01DX009 (ip), vehicle: saline with Tween-80) was 5 of 6, the T/C (T/C endpoint: mean survival time, dose: 40.0 mg/kg/injection, schedule: Q01DX009 (ip), vehicle: saline) was 126 and 143 % of control and the T/C (T/C endpoint: mean survival time, dose: 40.0 mg/kg/injection, schedule: Q03DX003 (ip), vehicle: saline) was 130 % of control. For the same compound, the T/C (T/C endpoint: mean survival time, dose: 40.0 mg/kg/injection, schedule: Q04DX003 (ip), vehicle: saline) was 132 % of control, the survivor count (T/C endpoint: mean survival time, dose: 80.0 mg/kg/injection, schedule: Q01DX009 (ip), vehicle: saline with Tween-80) was 0 of 6 and the survivor count (T/C endpoint: mean survival time, dose: 160.0 mg/kg/injection, schedule: Q01DX001 (ip), vehicle: saline with Tween-80) was 3 of 6. The survivor count (T/C endpoint: mean survival time, dose: 320.0 mg/kg/injection, schedule: Q01DX001 (ip), vehicle: saline with Tween-80) was 3 of 6, the T/C (T/C endpoint: median survival time, dose: 10.0 mg/kg/injection, schedule: Q01DX009 (ip), vehicle: saline) was 128 % of control and the T/C (T/C endpoint: median survival time, dose: 20.0 mg/kg/injection, schedule: Q01DX009 (ip), vehicle: saline) was 128 % of control.

With `N#Cc1[nH]nc2ncnc(N)c12` the survivor count (T/C endpoint: mean survival time, dose: 100.0 mg/kg/injection, schedule: Q01DX009 (ip), vehicle: saline with Tween-80) was 6 of 6, the survivor count (T/C endpoint: mean survival time, dose: 200.0 mg/kg/injection, schedule: Q01DX009 (ip), vehicle: saline with Tween-80) was 2 of 6 and the survivor count [6] was 1 of 6.

In the case of `CCOc1ccc2nc3cc(N)ccc3c(N)c2c1`, the survivor count [4] is reported as 6 of 6 and the survivor count (T/C endpoint: mean survival time, dose: 400.0 mg/kg/injection, schedule: Q01DX009 (ip), vehicle: saline) is reported as 2 of 6.

In the case of `CCN(CC)CCNc1ncnc(N)c1C(=C(C)C)c1ccc(Cl)cc1`, the survivor count [7] is reported as 2 of 6.

`ClCCCN1CCN(CCCCl)CC1` was tested, and the survivor count (T/C endpoint: mean survival time, dose: 200.0 mg/kg/injection, schedule: Q01DX009 (ip), vehicle: distilled water + alcohol) was 0 of 6.

`COCCC1(CN2c3ccccc3Sc3ccc(Cl)cc32)CCN(C)C1` (stereo unspecified) was tested, and the survivor count (T/C endpoint: mean survival time, dose: 400.0 mg/kg/injection, schedule: Q04DX003 (ip), vehicle: saline) was 0 of 6.

`OC(O)(C(F)(F)F)C(F)(F)F` was tested, and the survivor count (T/C endpoint: mean survival time, dose: 200.0 mg/kg/injection, schedule: Q01DX005 (ip), vehicle: saline) was 0 of 3 and the survivor count (T/C endpoint: mean survival time, dose: 400.0 mg/kg/injection, schedule: Q04DX002 (ip), vehicle: saline) was 0 of 3.

In the case of `O=S1(=O)CC23CC=CCC2(CC=CC3)C1` (stereo unspecified), the survivor count (T/C endpoint: mean survival time, dose: 400.0 mg/kg/injection, schedule: Q04DX003 (ip), vehicle: other) is reported as 3 of 6.

With `COC1CC2C(C[CH]1[Hg][Cl])C2(Cl)Cl` (stereo unspecified) the survivor count [1] was 0 of 6, the survivor count [2] was 0 of 6 and the survivor count [3] was 0 of 6.

For `CS(=O)(=O)CS(=O)(=O)OCCCl`, the T/C (T/C endpoint: median survival time, dose: 12.5 mg/kg/injection, schedule: Q01DX009 (ip), vehicle: saline with Tween-80) was 140 % of control, the survivor count (T/C endpoint: median survival time, dose: 100.0 mg/kg/injection, schedule: Q01DX009 (ip), vehicle: saline with Tween-80) was 4 of 6 and the survivor count (T/C endpoint: median survival time, dose: 200.0 mg/kg/injection, schedule: Q01DX009 (ip), vehicle: saline with Tween-80) was 0 of 6. The survivor count (T/C endpoint: median survival time, dose: 200.0 mg/kg/injection, schedule: Q01DX009 (ip), vehicle: saline) was 0 of 6.

`Nc1nc(F)nc2c1ncn2C1OC(CO)C(O)C1O` (stereo unspecified) was tested, and the T/C (T/C endpoint: mean survival time, dose: 156.0 mg/kg/injection, schedule: Q01DX005 (ip), vehicle: saline with Tween-80) was 149 % of control.

In the case of `C/C(=C\C(=O)c1ccccc1)OB(F)F`, the survivor count [6] is reported as 3 of 6.

In the case of `CCCCCCCCCCCCCCCCCC[N+]1(C)CCC[N+](C)(CCCCCCCCCCCCCCCCCC)CC1` (stereo unspecified), the T/C [5] is reported as 98, 102, 105 % of control (2×), the T/C (T/C endpoint: mean survival time, dose: 200.0 mg/kg/injection, schedule: Q01DX001 (ip), vehicle: saline with Tween-80) is reported as 98, 105, 108 % of control (2×) and the T/C [7] is reported as 104, 105, 109 % of control. The survivor count [7] was 1 of 3 and the survivor count [3] was 3 of 3.

`CCN(CC)C(=O)c1ccc[n+](CC(=O)Nc2ccc(Cl)cc2)c1` was tested, and the survivor count [1] was 2 of 6, the survivor count [2] was 0 of 6 and the survivor count [3] was 0 of 6.
